The exact form of at least one protein or probe is not confirmed. For some assays here: No signal at the amounts used counts as a negative. For some assays here: Tags and fusion partners may be left off the protein sequences shown.
How the values were obtained:
Test in all cases: EMSA
[1] = molecular target: T1, Cra (Escherichia coli K-12 W3110 type A) (UniProt P0ACP1); details: 0.5 pmol each FITC probe + 20 pmol TF (Fig 4: 0-8 pmol) in 10 ul DNA-binding buffer (composition not given, ref 38), 37 C, 20 min, PAGE with mixed probes; recombinant protein; protein details: His; label: FITC
T1 sequence (looked up, limits assumed): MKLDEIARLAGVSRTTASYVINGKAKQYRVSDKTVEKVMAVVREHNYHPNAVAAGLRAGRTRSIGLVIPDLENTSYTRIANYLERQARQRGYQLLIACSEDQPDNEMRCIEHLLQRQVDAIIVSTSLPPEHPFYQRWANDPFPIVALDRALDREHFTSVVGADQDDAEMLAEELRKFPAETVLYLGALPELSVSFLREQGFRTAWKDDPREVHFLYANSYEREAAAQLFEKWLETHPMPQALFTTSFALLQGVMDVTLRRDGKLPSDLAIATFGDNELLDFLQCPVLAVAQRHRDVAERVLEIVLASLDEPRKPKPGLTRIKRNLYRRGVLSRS

Sequences of proteins named here, by UniProt entry; tags and fusion partners are left off. A change or cut given only in a name is not applied to a line headed by its entry.
UniProt P76086: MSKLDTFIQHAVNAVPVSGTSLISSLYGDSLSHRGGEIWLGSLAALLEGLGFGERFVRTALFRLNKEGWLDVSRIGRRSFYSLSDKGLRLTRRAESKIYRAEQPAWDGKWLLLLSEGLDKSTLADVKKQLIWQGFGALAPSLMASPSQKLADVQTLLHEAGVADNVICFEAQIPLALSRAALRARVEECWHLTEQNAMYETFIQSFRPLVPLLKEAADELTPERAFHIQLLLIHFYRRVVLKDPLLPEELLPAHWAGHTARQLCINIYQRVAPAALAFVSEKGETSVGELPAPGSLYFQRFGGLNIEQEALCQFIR
UniProt P76114, whole entry: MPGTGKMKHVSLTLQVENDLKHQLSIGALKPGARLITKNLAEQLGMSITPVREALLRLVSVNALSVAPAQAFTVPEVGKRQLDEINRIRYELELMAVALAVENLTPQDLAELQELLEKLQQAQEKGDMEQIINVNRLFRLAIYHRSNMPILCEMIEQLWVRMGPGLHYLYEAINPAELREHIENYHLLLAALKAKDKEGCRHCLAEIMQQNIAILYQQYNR
UniProt P0A8W0: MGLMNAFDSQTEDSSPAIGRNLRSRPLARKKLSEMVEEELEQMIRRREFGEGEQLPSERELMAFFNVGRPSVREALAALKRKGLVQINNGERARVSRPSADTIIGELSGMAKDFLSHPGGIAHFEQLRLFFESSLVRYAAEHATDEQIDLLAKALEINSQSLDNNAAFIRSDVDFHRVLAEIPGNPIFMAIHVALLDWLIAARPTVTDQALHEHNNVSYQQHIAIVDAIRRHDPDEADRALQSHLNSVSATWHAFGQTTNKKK
UniProt P67660: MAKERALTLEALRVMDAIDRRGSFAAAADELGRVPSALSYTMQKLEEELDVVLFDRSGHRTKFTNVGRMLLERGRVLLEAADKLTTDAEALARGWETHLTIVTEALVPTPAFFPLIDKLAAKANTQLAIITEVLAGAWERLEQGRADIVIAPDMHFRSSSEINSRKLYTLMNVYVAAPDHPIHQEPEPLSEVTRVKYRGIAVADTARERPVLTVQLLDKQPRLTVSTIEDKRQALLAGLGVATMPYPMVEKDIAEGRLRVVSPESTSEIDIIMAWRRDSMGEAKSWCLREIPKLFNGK

[2] = molecular target: T2, UxuR (Escherichia coli K-12 W3110 type A) (UniProt P39161); details: 0.5 pmol each FITC probe + 20 pmol TF (Fig 4: 0-8 pmol) in 10 ul DNA-binding buffer (composition not given, ref 38), 37 C, 20 min, PAGE with mixed probes; recombinant protein; protein details: His; label: FITC
T2 sequence (looked up, limits assumed): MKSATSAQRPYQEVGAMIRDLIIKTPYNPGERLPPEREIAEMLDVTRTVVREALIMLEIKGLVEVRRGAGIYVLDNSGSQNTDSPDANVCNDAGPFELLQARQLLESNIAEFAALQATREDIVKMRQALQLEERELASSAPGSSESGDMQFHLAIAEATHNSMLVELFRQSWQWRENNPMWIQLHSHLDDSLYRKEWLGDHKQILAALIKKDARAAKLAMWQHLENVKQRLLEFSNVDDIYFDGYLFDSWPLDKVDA

[3] = molecular target: T3, UlaR (Escherichia coli K-12 W3110 type A) (UniProt P0A9W0); details: 0.5 pmol each FITC probe + 20 pmol TF (Fig 4: 0-8 pmol) in 10 ul DNA-binding buffer (composition not given, ref 38), 37 C, 20 min, PAGE with mixed probes; recombinant protein; protein details: His; label: FITC
T3 sequence (looked up, limits assumed): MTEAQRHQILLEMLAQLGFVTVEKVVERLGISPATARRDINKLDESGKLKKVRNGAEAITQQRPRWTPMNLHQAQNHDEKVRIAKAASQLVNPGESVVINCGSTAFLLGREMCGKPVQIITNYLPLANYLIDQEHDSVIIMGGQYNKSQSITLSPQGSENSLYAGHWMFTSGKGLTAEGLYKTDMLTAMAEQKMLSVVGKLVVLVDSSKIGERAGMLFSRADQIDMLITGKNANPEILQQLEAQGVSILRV

[4] = molecular target: PaaX (Escherichia coli K-12 W3110 type A) (UniProt P76086); details: 0.5 pmol each FITC probe + 20 pmol TF (Fig 4: 0-8 pmol) in 10 ul DNA-binding buffer (composition not given, ref 38), 37 C, 20 min, PAGE with mixed probes; recombinant protein; protein details: His; label: FITC
[5] = molecular target: T4, GlpR (Escherichia coli K-12 W3110 type A) (UniProt P0ACL0); details: 0.5 pmol each FITC probe + 20 pmol TF (Fig 4: 0-8 pmol) in 10 ul DNA-binding buffer (composition not given, ref 38), 37 C, 20 min, PAGE with mixed probes; recombinant protein; protein details: His; label: FITC
T4 sequence (looked up, limits assumed): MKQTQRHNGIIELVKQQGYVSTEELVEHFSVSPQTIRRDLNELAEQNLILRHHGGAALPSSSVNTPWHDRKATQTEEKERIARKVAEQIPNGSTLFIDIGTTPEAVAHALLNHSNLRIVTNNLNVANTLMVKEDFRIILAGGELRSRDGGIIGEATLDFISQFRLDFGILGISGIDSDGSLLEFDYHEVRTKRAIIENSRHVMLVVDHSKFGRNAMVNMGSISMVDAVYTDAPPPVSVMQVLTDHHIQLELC

[6] = system: YiuA (Escherichia coli K-12 W3110 type A); details: 0.5 pmol each FITC probe + 20 pmol TF (Fig 4: 0-8 pmol) in 10 ul DNA-binding buffer (composition not given, ref 38), 37 C, 20 min, PAGE with mixed probes; recombinant protein; protein details: His; label: FITC
[7] = molecular target: McbR (Escherichia coli K-12 W3110 type A) (UniProt P76114); details: 0.5 pmol each FITC probe + 20 pmol TF (Fig 4: 0-8 pmol) in 10 ul DNA-binding buffer (composition not given, ref 38), 37 C, 20 min, PAGE with mixed probes, recombinant protein, protein details: His, label: FITC
[8] = molecular target: T5, DsdC (Escherichia coli K-12 W3110 type A) (UniProt P46068); details: 0.5 pmol each FITC probe + 20 pmol TF (Fig 4: 0-8 pmol) in 10 ul DNA-binding buffer (composition not given, ref 38), 37 C, 20 min, PAGE with mixed probes; recombinant protein; protein details: His; label: FITC
T5 sequence (looked up, limits assumed): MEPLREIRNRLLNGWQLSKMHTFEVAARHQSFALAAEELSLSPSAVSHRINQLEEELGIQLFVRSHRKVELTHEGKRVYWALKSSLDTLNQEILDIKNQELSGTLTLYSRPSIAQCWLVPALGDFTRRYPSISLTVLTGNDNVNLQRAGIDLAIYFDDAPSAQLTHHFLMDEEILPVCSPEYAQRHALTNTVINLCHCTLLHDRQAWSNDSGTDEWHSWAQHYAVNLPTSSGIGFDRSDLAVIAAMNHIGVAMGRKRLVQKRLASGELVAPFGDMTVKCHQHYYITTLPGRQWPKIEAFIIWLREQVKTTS

[9] = molecular target: T6, BtsR (Escherichia coli K-12 W3110 type A) (UniProt P0AFT5); details: 0.5 pmol each FITC probe + 20 pmol TF (Fig 4: 0-8 pmol) in 10 ul DNA-binding buffer (composition not given, ref 38), 37 C, 20 min, PAGE with mixed probes; recombinant protein; protein details: His; label: FITC
T6 sequence (looked up, limits assumed): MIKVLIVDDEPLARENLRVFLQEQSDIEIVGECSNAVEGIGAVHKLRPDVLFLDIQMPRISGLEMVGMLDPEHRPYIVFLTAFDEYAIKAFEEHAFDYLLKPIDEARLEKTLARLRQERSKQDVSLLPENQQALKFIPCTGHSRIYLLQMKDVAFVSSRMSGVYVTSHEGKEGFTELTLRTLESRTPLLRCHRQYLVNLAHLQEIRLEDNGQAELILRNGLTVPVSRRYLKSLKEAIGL

[10] = molecular target: NanR (Escherichia coli K-12 W3110 type A) (UniProt P0A8W0); details: 0.5 pmol each FITC probe + 20 pmol TF (Fig 4: 0-8 pmol) in 10 ul DNA-binding buffer (composition not given, ref 38), 37 C, 20 min, PAGE with mixed probes; recombinant protein; protein details: His; label: FITC
[11] = molecular target: YhaJ (Escherichia coli K-12 W3110 type A) (UniProt P67660); details: 0.5 pmol each FITC probe + 20 pmol TF (Fig 4: 0-8 pmol) in 10 ul DNA-binding buffer (composition not given, ref 38), 37 C, 20 min, PAGE with mixed probes; recombinant protein; protein details: His; label: FITC
[12] = molecular target: T7, OmpR (Escherichia coli K-12 W3110 type A) (UniProt P0AA16); details: 0.5 pmol each FITC probe + 20 pmol TF (Fig 4: 0-8 pmol) in 10 ul DNA-binding buffer (composition not given, ref 38), 37 C, 20 min, PAGE with mixed probes; recombinant protein; protein details: His; label: FITC
T7 sequence (looked up, limits assumed): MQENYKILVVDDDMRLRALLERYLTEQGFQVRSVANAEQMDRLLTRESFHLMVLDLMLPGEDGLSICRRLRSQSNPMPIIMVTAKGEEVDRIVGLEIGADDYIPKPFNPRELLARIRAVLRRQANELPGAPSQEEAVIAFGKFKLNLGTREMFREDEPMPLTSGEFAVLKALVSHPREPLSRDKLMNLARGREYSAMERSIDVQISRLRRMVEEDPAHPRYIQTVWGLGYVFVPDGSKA

Sequence | binding result [1] | binding result [2] | binding result [3] | binding result [4] | binding result [5] | binding result [6] | binding result ([7]; 10 mM AI-2, increased binding) | binding result ([7]; no effector) | binding result [8] | binding result [9] | binding result [10] | binding result [11] | binding result [12]
ATTATAAAGATTTGTAAATATAACCGTCTCCGGTATGTTGCCTGAGGCGGTTTTTTTGTCTCTAACGTGCGGAAAAATTTGTTCCTCTTCACATTTTTTGTACAACCGACATGCCCGTGTAGCTCACAAATATGACAGTGGCGTGAATTTTGCGCATTGACGGCAGTTATGATTCGCGGTATTGCTTAACTGTGATTGCACATTTAGTAATCACTGTTTTCTTTTCCACCAGAAACCAGTATGAGGGAAACGAGGC (double strand) [rmf promoter probe (256 bp)] | binds | binds | binds | no binding | binds | binds | binds | binds | no binding | binds | binds | binds | binds
CGTACCGACCCCATATCGTGACGCCGCTGCTGTTGTACTAACCAAACAGGTTCCCCCTGCCATTCGCCGATTTGTAGTGCGCGCTGACCCACAAGATCGAAATTTGCCGCTTCGCCATATGGCAATTCTCCCTTCGGCAACCATAATTTTTGTTCATGGCTGACGACCCACCAGCCGTGATCTAATTTTTCAATTATACGATCCATAGCTCTTGCACTACCTTTGCATCACTGGCATGTTTAACATGGTTTTTACATTTCTCACTGAGCAGTTTTTGAATACAAACTTGCGGAGTCAATC (double strand) [rsd promoter probe (300 bp)] | binds | no binding | binds | binds | no binding | no binding | binds | binds | binds | no binding | binds | no binding | no binding

Source: paper PMC6134199
